# Laboratory results: the supplement of paper PMC12009310
# Where a name gives a salt, the structure may show the parent alone. ± gives the standard deviation of the averaged measurements. The list shows a part of the results. Baselines shift from plate to plate; read single values as rough.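 The cells are a mouse kidney inner medullary collecting duct line, silenced either for the ciliary gene Rpgrip1l or with a non-targeting control siRNA.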 Where a SMILES comes first, the peptide text is derived from it. [ ]: non-standard residue; d: D form.
# Experiments:
# [1] = tested on: mIMCD3; assay: robust z score of cell number vs plate controls; higher = more cells (less cytotoxic); conditions: 10 µM, 48 h
# [2] = tested on: mIMCD3; assay: robust z score of cilia incidence (% cells with single cilium) vs plate controls; higher = more ciliated cells; conditions: 10 µM; 48 h; siRNA: siScr
# [3] = tested on: mIMCD3; assay: robust z score of cilia incidence (% cells with single cilium) vs plate controls; higher = more ciliated cells (rescue of cilia loss); conditions: 10 µM; 48 h; siRNA: siRpgrip1l
SMILES,robust z score of cell number ([1]; siRNA: siRpgrip1l),robust z score of cell number ([1]; siRNA: siScr),robust z score of cilia incidence [2],robust z score of cilia incidence [3]
CCCCOC(=O)c1cc2c(cn1)[nH]c1ccccc12,-37 ± 27,-29.6 ± 22,-12.7 ± 2,-29.7 ± 19
CCCCN1CCCC1CNC(=O)c1cc(C#N)c2ccccc2c1OC (configuration not stated) [Nafadotride],-52.1 ± 65,-11.3 ± 1.6,-11.8 ± 15,-12.8 ± 0.43
CC1CCN=C(N)S1 (configuration not stated) [AMT hydrochloride],-1.13 ± 2.8,-1.01 ± 4,-0.743 ± 1.5,-7.8 ± 0.34
C/N=C(/NC#N)NCCSCc1csc(NC(=N)N)n1 [Tiotidine],-4.26 ± 3.4,-1.9 ± 0.56,1.54 ± 3.5,-3.38 ± 1.2
CN1C(C(=O)Nc2ccccn2)=C(O)c2ccccc2S1(=O)=O [Piroxicam],-3.17 ± 0.47,-5.08 ± 0.56,5.13 ± 4.7,-8.03 ± 2.2
CCCCc1nn(-c2ccccc2C(F)(F)F)c(=O)n1Cc1ccc(-c2ccccc2S(=O)(=O)NC(=O)c2sccc2C)cc1,-28.3 ± 8.1,-129 ± 97,-8.93 ± 2.4,-17.4 ± 4
O=c1[nH]nc(Sc2ncc([N+](=O)[O-])s2)n1-c1ccc2c(c1)OCCO2,-31.3 ± 30,-14.1 ± 14,-16.4 ± 11,-19.9 ± 4.1
NC(=O)c1ccc2[nH]ccc2c1,-6.58 ± 3.9,2.35 ± 2.2,1.83 ± 0.45,-8.53 ± 5.1
CN1CCN(C2=Nc3cc(Cl)ccc3Nc3ccccc32)CC1 [Clozapine],-3.85 ± 0.33,-7.09 ± 5.8,-0.0703 ± 6.7,-11.6 ± 7.9
CCC(=O)NC1Cc2ccccc2C(c2ccccc2)C1 (configuration not stated),-3.15 ± 3.7,1.55 ± 1.5,0.0355 ± 2,-15.8 ± 2.9
CC(C)C[C@H](NC(=O)[C@@H](O)[C@H](N)Cc1ccccc1)C(=O)O [Bestatin],-2.33 ± 2.1,-0.119 ± 0.46,4.34 ± 3.5,-22.6 ± 22
O=C(CCCN1CCC(O)(c2ccc(Cl)cc2)CC1)c1ccc(F)cc1 [Haloperidol hydrochloride],-15.1 ± 11,-13.5 ± 1.1,-18 ± 9.8,-25.6 ± 6.5
CCCCCCCC/C=C\CCCCCCCC(N)=O [Oleamide],-3.51 ± 1.6,-0.832 ± 0.83,-3.19 ± 5.8,-9.59 ± 3.3
CCc1cc(-c2n[nH]c(C)c2-c2ccc3c(c2)OCCO3)c(O)cc1O,-29.5 ± 15,-27.1 ± 5.5,-46.7 ± 42,-34.4 ± 17
CN(Cc1ccccc1)C(=O)[C@H](Cc1ccc2ccccc2c1)NC(=O)[C@@H]1CCCN1C(=O)Nc1ccccc1[N+](=O)[O-],-21.3 ± 12,-20.3 ± 4.9,-22.4 ± 18,-27.8 ± 16
c1ccc(COCCCc2c[nH]cn2)cc1 [Proxyfan Oxalate],-11.2 ± 8.5,-2.08 ± 4.4,-0.884 ± 0.26,-2.57
CCOC(=O)C1=C(N)Oc2ccc(Br)cc2C1C(C#N)C(=O)OCC (configuration not stated),-52.3 ± 61,-0.21 ± 0.88,1.37 ± 0.35,-7.88 ± 1.9

# Full records from above. Order of values: robust z score of cell number ([1]; siRNA: siRpgrip1l) | robust z score of cell number ([1]; siRNA: siScr) | robust z score of cilia incidence [2] | robust z score of cilia incidence [3]
# `CC1CCN=C(N)S1` (configuration not stated) [AMT hydrochloride] as listed: -1.13 ± 2.8 | -1.01 ± 4 | -0.743 ± 1.5 | -7.8 ± 0.34
# `CN(Cc1ccccc1)C(=O)[C@H](Cc1ccc2ccccc2c1)NC(=O)[C@@H]1CCCN1C(=O)Nc1ccccc1[N+](=O)[O-]` as listed: -21.3 ± 12 | -20.3 ± 4.9 | -22.4 ± 18 | -27.8 ± 16

# (list continues)

SMILES,robust z score of cell number ([1]; siRNA: siRpgrip1l),robust z score of cell number ([1]; siRNA: siScr),robust z score of cilia incidence [2],robust z score of cilia incidence [3]
CN1CCN2c3ccccc3Cc3ccccc3C2C1 (configuration not stated) [Mianserin hydrochloride],-5.61 ± 2.5,-4.83 ± 3.3,-0.737 ± 2.3,-6.81 ± 3.2
CC1(C)Oc2ccc(C#N)cc2[C@H](N2CCCC2=O)[C@H]1O [Cromakalim],-28.4 ± 32,-21.6 ± 32,-6.03 ± 7.6,-5.63 ± 0.76
COc1ccc(CN(CCN(C)C)c2ccccn2)cc1 [Mepyramine maleate],-0.938 ± 1.9,12.5 ± 16,1.49 ± 0.67,-6.69 ± 6.7
CCOc1ccc(Nc2nc(-c3c(C)nc4ccccn34)cs2)cc1,-29.5 ± 28,-14.2 ± 13,-26.6 ± 19,-29.9 ± 6.7
COc1ccc(Br)cc1S(=O)(=O)NC(=O)/C=C/c1ccccc1Cc1ccc2ccccc2c1,-31.8 ± 30,-14.6 ± 13,-25.4 ± 16,-28.5 ± 5
Nc1[nH]nc2nc3ccccc3nc12,-2.79 ± 0.41,-0.72 ± 0.5,5.91 ± 4.6,-22.5 ± 21
OC1CCC(Nc2nc(-c3ccccc3)nc3[nH]ccc23)CC1 (configuration not stated),-5.34 ± 3.2,-4.2 ± 1.7,-7.2 ± 5.8,-5.83 ± 0.87
CN1CCC(=C2c3ccccc3CC(=O)c3sccc32)CC1 [Ketotifen fumarate],1.08 ± 0.093,-1.67 ± 1.1,-8.04 ± 5.2,-12.4 ± 3.8
Clc1ccc2c(c1)N=C(N1CCNCC1)c1ccccc1N2 [N-Desmethylclozapine],-20.6 ± 2.9,-20.3 ± 9.2,-24.8 ± 10,-22.3 ± 4
N[C@@H](C(=O)O)c1ccc(O)c(C(=O)O)c1 [(R)-3-Carboxy-4-hydroxyphenylglycine],19.2 ± 30,-5.73 ± 6.5,1.01 ± 0.2,-3.09 ± 0.14
N[C@H](C(=O)O)[C@H](OCc1ccccc1)C(=O)O (racemic),-5.5 ± 1.1,-7.23 ± 2,-1.63 ± 0.36,-14.2 ± 3.1
CC(=O)NCC(=O)N[C@H](CCC(=O)O)C(=O)O [N-Acetylglycyl-D-glutamic acid] (Ac-Gly-[dE]-OH),4.81 ± 2.8,-3.9 ± 16,0.84 ± 1.5,-7.54 ± 8.4
O=C1c2ccccc2C(Cc2ccncc2)(Cc2ccncc2)c2ccccc21 [XE 991 dihydrochloride],-2.23 ± 0.24,-4.15 ± 5.8,0.964 ± 1.5,-13.6 ± 7.5
"Cc1ccc(OCC(O)C(C)NC(C)C)c2c1CCC2 (configuration not stated) [ICI-118,551 hydrochloride]",-3.97 ± 4.4,-1.81 ± 1.1,-5.73 ± 0.34,-11.3 ± 1.5
NC(=O)OCC(COC(N)=O)c1ccccc1 [Felbamate],0.26 ± 4.5,-0.764 ± 1.3,-0.404 ± 3.6,-6.48 ± 1.5
CC1(C)CCC(C)(C)c2cc(C(=O)Nc3ccc(C(=O)O)cc3)ccc21,-9.84 ± 2.9,-11.3 ± 0.64,2.28 ± 0.92,-5.76 ± 0.18
